The other results are listed elsewhere or left out. Values are raw readings; no control value is given beside them.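 First-pass screen: polymyxin B was added at a level that permeabilizes the Salmonella outer membrane while sparing the inner membrane. DMSO wells, with and without polymyxin B, defined maximum growth. Because plates differed from one another, each plate's data were ranked separately and the compounds with the lowest OD600 were carried forward as hits.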

The subject of the test is Salmonella enterica serovar Typhimurium SL1344. Put plainly: bacterial growth OD600 after 18 h with compound and polymyxin B; higher = more bacterial growth (less inhibition). Conditions: 50 µM, Mueller-Hinton broth.

As for `COc1ccccc1N1CCN(C(=O)c2cn(C(C)C)cc(C(=O)NCc3ccccc3)c2=O)CC1`, the “bacterial growth OD600” value (polymyxin B 0.75 µg/mL) was determined as 0.768. Consider `COc1ccc(O)c(CN2CCCC(c3[nH]ncc3C(C)C)C2)c1` (stereo not given), for which the “bacterial growth OD600” value (polymyxin B 0.75 µg/mL) was found to be 0.858. For the compound `Cc1cc(CNc2ccc(-c3nc(-c4ccccc4F)no3)cn2)no1`, the “bacterial growth OD600” value (polymyxin B 1 µg/mL) is 0.482. As for `CCCCNC(=O)c1cn(C(C)C)cc(C(=O)N2CCN(C/C=C/c3ccccc3)CC2)c1=O`, the “bacterial growth OD600” value (polymyxin B 0.75 µg/mL) came to 0.832. For the compound `O=C(C1=CCCCC1)N1CCC(CO)(Cc2ccccc2C(F)(F)F)CC1`, the “bacterial growth OD600” value (polymyxin B 0.75 µg/mL) turned out to be 0.525.

For the compound `COc1ccc2cc(C(=O)C3CCCN(C(=O)c4sccc4C)C3)ccc2c1` (stereo not given), the “bacterial growth OD600” value (polymyxin B 1 µg/mL) stood at 0.46. For `CN(Cc1cccs1)C(=O)c1cc(COc2cccc(F)c2)[nH]n1`, for the setting “polymyxin B 0.75 µg/mL”, the “bacterial growth OD600” value came to 0.505.

For the compound `CN(CCc1cnn(C)c1)C(=O)CC1(c2ccccc2)CC(=O)N(CCCOc2cccnc2)C1=O` (stereo not given), the “bacterial growth OD600” value (polymyxin B 0.75 µg/mL) was 0.884. For the compound `CCN(CC1CCCN(CCc2cccc(OC)c2)C1)C(=O)CSC` (stereo not given), the “bacterial growth OD600” value (polymyxin B 0.75 µg/mL) was found to be 0.836. `O=C(NCCC1COc2ccccc2O1)c1ccc(N2CCCOCC2)nc1` (stereo not given): the “bacterial growth OD600” value (polymyxin B 1 µg/mL) came out at 0.838. Regarding `COc1cccc(-c2ccc(NC(=O)C3CCCN(C4CCC4)C3)cc2)c1` (stereo not given), under “polymyxin B 1 µg/mL”, the “bacterial growth OD600” value worked out at 0.903. For `CCn1ccnc1CNC(=O)CC(c1ccccc1)c1cccc(Cl)c1` (stereo not given), for the setting “polymyxin B 0.75 µg/mL”, the “bacterial growth OD600” value is 0.215. As for `COc1cccc(CC(C2CCN(C(=O)CC3CCCCC3)CC2)N(C)C(=O)c2ccsc2)c1` (stereo not given), the “bacterial growth OD600” value (polymyxin B 0.75 µg/mL) amounted to 0.002. Regarding `CCOc1cc(CN2CCC3(CC2)c2ccccc2[C@@H](NC(=O)CSC)[C@@H]3OC)ccc1O`, the “bacterial growth OD600” value (polymyxin B 0.75 µg/mL) is 0.858. Turning to `Cc1cccc(CN2CCCC3(CCN(C(=O)Cc4cccnc4)C3)C2=O)c1` (stereo not given), the “bacterial growth OD600” value (polymyxin B 1 µg/mL) amounted to 1.01.

Take `COCC1CCCN(C(=O)c2cc(Cn3cnc4ccccc43)[nH]n2)C1` (stereo not given): for the setting “polymyxin B 1 µg/mL”, the “bacterial growth OD600” value turned out to be 0.907. In the case of `CC#CCN1C(=O)NC(CCc2ccccc2)(C2CCN(Cc3cccc(O)c3)CC2)C1=O` (stereo not given), the “bacterial growth OD600” value (polymyxin B 0.75 µg/mL) came out at 0.773. As to `COc1ccc(C(=O)N2CCCC2)c(OC2CCN(Cc3ccc(O)c(OC)c3)CC2)c1`, the “bacterial growth OD600” value (polymyxin B 0.75 µg/mL) worked out at 0.855. `COc1ccc2c(C)nc(N3CCC(NCc4c(F)cccc4F)CC3)nc2c1`: under “polymyxin B 0.75 µg/mL”, the “bacterial growth OD600” value came out at 0.782. For the compound `CCc1nc2cc(C(=O)NCCCOc3cccnc3)cc(NC(=O)c3ccccc3OC)c2n1C`, the “bacterial growth OD600” value (polymyxin B 0.75 µg/mL) stood at 0.88. With `CC(C1CCN(C(=O)CCN2Cc3ccccc3OC(c3ccccc3F)C2)CC1)N1CCOCC1` (stereo not given), the “bacterial growth OD600” value (polymyxin B 0.75 µg/mL) turned out to be 0.721. Take `CCn1cc(CN2Cc3cc(C)ccc3OC(c3ccsc3)C2)c(C)n1` (stereo not given): the “bacterial growth OD600” value (polymyxin B 0.75 µg/mL) is 0.78. Same read-out and setting: for `COc1ccc(CC2(CCC(=O)NC(C)c3ccc(F)cc3)CCC(=O)N2)c(F)c1` (stereo not given) the value was 0.838. For the compound `COc1ccccc1CN(C)C(=O)c1csc2nc(-c3ccccc3)cn12`, the “bacterial growth OD600” value (polymyxin B 1 µg/mL) was determined as 0.62. For the compound `Cc1cc(C)n(Cc2cc(C(=O)N(Cc3nccn3C)C(C)C)n[nH]2)n1`, for the setting “polymyxin B 1 µg/mL”, the “bacterial growth OD600” value was 1.07. On to `CN(Cc1ccon1)C(=O)c1csc2nc(-c3cccc(F)c3)cn12`, for which, for the setting “polymyxin B 0.75 µg/mL”, the “bacterial growth OD600” value amounted to 0.68. For the compound `COCCN(Cc1ccccn1)C(Cc1ccccc1)C1CCN(Cc2cc(OC)ccc2O)CC1` (stereo not given), the “bacterial growth OD600” value (polymyxin B 0.75 µg/mL) came to 0.682. On to `COc1ccc(CC(=O)NC2CC(=O)N(Cc3ccccc3Cl)C2)cc1` (stereo not given), for which the “bacterial growth OD600” value (polymyxin B 1 µg/mL) came to 0.708. Regarding `CCCN(CC1CCCO1)C(=O)CC1(c2ccccc2)CC(=O)N(Cc2ccc3c(c2)OCO3)C1=O` (stereo not given), the “bacterial growth OD600” value (polymyxin B 0.75 µg/mL) worked out at 0.005. Turning to `O=C(c1ccc2[nH]ccc2c1)N1CCOc2ccc(CN3CCN(CCO)CC3)cc2C1`, the “bacterial growth OD600” value (polymyxin B 0.75 µg/mL) was determined as 0.855.

The values above are taken from the supplement of paper PMC12889115.
